This is an account of results in PubChem BioAssay AID2685 (National Center for Advancing Translational Sciences (NCATS), 2010).

The other results are listed elsewhere or left out. Further columns of the screen follow, without active or inactive calls. Most of these compounds were active or inconclusive in the main read-out, so they are no random draw. Words in brackets tell the shape of the fitted curve; partial curves, single points and poor fits give uncertain potencies.

The AC50 is the midpoint of the concentration-response curve, whichever way the signal moves. A high value points to activity only at high concentration.

A short description of the experiment: qHTS Assay for Lipid Storage Modulators in Drosophila S3 Cells.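 On cell number change: cells counted by Cell Tracker Red CMTPX staining in the red channel.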 The conditions noted are these: BODIPY lipid droplet fluorescence, 18-24 h; for cell number change: measured here: cell count max response, cells fed with added oleic acid. In short, it runs like this: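 Drosophila S3 cells got compounds at several concentrations plus oleic acid (400 uM solution). Laser-scanning cytometry with 488 nm excitation read lipid droplets at 500-530 nm and cells at 575-640 nm. Percent activity was relative to 20 uM Triacsin C.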
For orientation: Quantitative high-throughput screening tests each substance at several concentrations.

The mark [1] stands for this setting: measured here: cell number channel AC50, cells fed with added oleic acid.
[2] abbreviates: measured here: lipid fluorescence (Fed channel) AC50, cells fed with added oleic acid.

Take `COC(=O)c1c(NC(=O)CC2SC(N)=NC2=O)sc(C)c1C` (stereo unspecified): the cell number change was 49.5%. Moreover, under setting [1], the AC50 is 25.9 µM [rising, partial curve, poor fit].

As for `CC1CCC(NC(=O)CN2C(=O)NC(C)(C)C2=O)CC1` (stereo unspecified), the cell number change is -21.5%. Further, the AC50 under setting [2] is 4.11 µM [falling, single point].

Regarding `COc1cccc(NC(=S)NN=C2CCC(C(C)(C)C)CC2)c1` (stereo unspecified), the cell number change is 71.2%. Also, the AC50 under setting [1] was 20.6 µM [rising, partial curve, poor fit]. Further, under setting [2], the half-maximal activity concentration (AC50) was 4.61 µM [rising, single point].

As for `O=C(/C=C/c1cccs1)Nc1ccncc1`, the cell number change turned out to be 8.41%.

Turning to `CCN1CCN(C(=O)C2CCN(Cc3cc(Cl)ccc3O)CC2)CC1`, the cell number change worked out at 0.581%. Further, the AC50 under setting [2] is 6.51 µM [falling, full curve, poor fit].

On to `COc1ccc([C@H]2CC(=O)C=C(c3ccc4[nH]ccc4c3)C2)cc1OC`, for which the cell number change was -5.77%. Also, the AC50 under setting [2] was 2.91 µM [rising, single point].

For the compound `CCC(=O)N1CCN(c2nc(-c3ccccc3)c3c(c2C#N)CCCC3)CC1`, the cell number change amounted to 3.47%. Further, the AC50 under setting [2] was 0.0058 µM [rising, full curve, poor fit].

As for `CCc1nnc(NC(=O)COc2ccc3c(c2)OCO3)s1`, the cell number change is 113%. Further, the AC50 under setting [1] is 14.6 µM [rising, partial curve].

As to `COC(=O)c1cc(NC(=O)Cn2c(=O)cnc3ccccc32)cc(C(=O)OC)c1`, the cell number change was determined as 6.52%.

On to `CCN=c1scc(-c2ccco2)n1/N=C/c1ccc(OC)c(O)c1`, for which the cell number change was -72.5%. In addition, the AC50 under setting [1] is 29.1 µM [falling, partial curve]. Moreover, the AC50 under setting [2] was 20.6 µM [falling, single point].

`CCNC(=O)/C(C#N)=C/c1c(N2CCN(c3ccccc3)CC2)nc2ccccn2c1=O`: the AC50 under setting [1] was 0.00461 µM [rising, full curve, poor fit].

In the case of `CCOC(=O)c1c(C)[nH]c(C)c1C(=O)COC(=O)c1cc(OC)cc(OC)c1`, the cell number change was -38.8%.

For the compound `CC(C)(C)c1ccc(S(=O)(=O)NCCc2ccncc2)cc1`, the cell number change is -9.09%. Also, the AC50 under setting [2] was 23.1 µM [rising, single point].

With `CCOC(=O)c1cnn(-c2cc(Oc3cccc(C)c3)ncn2)c1N`, the cell number change was determined as 19%. Also, the AC50 under setting [1] is 1.46 µM [rising, partial curve, poor fit]. The AC50 under setting [2] was 4.11 µM [rising, full curve].

For the compound `Cn1c(N)c(C(=O)Nc2cccc(Cl)c2)c(=O)n(C)c1=O`, the cell number change was -17.6%. Moreover, the AC50 under setting [2] was 0.731 µM [rising, single point].

For `O=C(NCC(c1ccco1)N1CCN(c2ccc(F)cc2)CC1)C(=O)NC1CCCC1` (stereo unspecified), the cell number change stood at 3.85%. Moreover, the AC50 under setting [2] was 29.1 µM [rising, single point].

Take `CC(C)(C)NC(=O)C(c1ccncc1)N(C(=O)Cn1nnc(-c2cccs2)n1)C1CCCCC1` (stereo unspecified): under setting [2], the AC50 was 0.651 µM [rising, single point].

Consider `COCCn1c(=NC(=O)c2ccc3c(c2)OCCO3)sc2cc(S(N)(=O)=O)ccc21`, for which the cell number change is -30.3%. Under setting [1], the AC50 was 29.1 µM [falling, single point].

With `Cc1ccc(S(=O)(=O)NCCSc2nnc(N)s2)cc1`, the cell number change is 2.62%.

`COc1ccc(-c2sc(Nc3ccc(F)c(F)c3F)nc2CCC(=O)NN)cc1`: the cell number change is 11.9%. Also, the AC50 under setting [2] is 0.58 µM [falling, single point].

With `COc1cc(OC)cc(C(=O)N[C@H](C(=O)OCC(=O)NC(=O)NC(C)(C)C)C(C)C)c1`, the AC50 under setting [2] was 0.103 µM [falling, single point].

Turning to `OC(COc1ccccc1)CN1CCCC1` (stereo unspecified), the cell number change was -32.2%. Further, the half-maximal activity concentration (AC50) under setting [2] is 23.1 µM [falling, single point].

`O=C(COC(=O)c1cccc(S(=O)(=O)N2CCCCCC2)c1)Nc1ccccc1`: the cell number change was found to be 25%. In addition, the AC50 under setting [1] is 1.16 µM [falling, partial curve, poor fit].

On to `CCn1c(SCC(=O)N2CCCCC2C)nc2c1c(=O)n(C)c(=O)n2C` (stereo unspecified), for which the cell number change was -19.2%.

Consider `COc1ccc(N2CCOCC2)c(NC(=O)c2ccco2)c1`, for which the cell number change is -19.7%.

For the compound `CCCC1C2C(=O)N(c3ccccc3OCC)C(=O)C2ON1c1ccccc1` (stereo unspecified), the cell number change is 14.6%.

As to `Cc1ccc(OCCCCn2ccnc2)c(Cl)c1`, the cell number change is -16.8%. Also, under setting [2], the half-maximal activity concentration (AC50) was 0.461 µM [rising, full curve].

For `O=C1CC(c2ccco2)CC(O)=C1C=NCCN1CCN(C(=S)Nc2ccccc2)CC1` (stereo unspecified), the cell number change is 11.5%. Under setting [1], the AC50 was 0.00461 µM [rising, full curve, poor fit]. Further, under setting [2], the AC50 was 0.00517 µM [rising, full curve, poor fit].

Regarding `CCOC(=O)C1=C(C)OC(N)=C(C#N)C1c1ccc(O)c(OC)c1` (stereo unspecified), the cell number change is -86.8%. Further, under setting [1], the AC50 is 14.6 µM [falling, partial curve]. Besides, the AC50 under setting [2] is 29.1 µM [rising, single point].

As for `CCC(C)(C)n1nnnc1CN1CCC(c2nc3ccc(C)cc3[nH]2)CC1`, the cell number change was found to be 19.9%. Also, the AC50 under setting [2] was 6.51 µM [rising, single point].

Turning to `COc1ccccc1N1C(=O)S/C(=C\c2ccc(C)s2)C1=O`, the cell number change was determined as 81.1%. For the same compound, under setting [1], the AC50 is 29.1 µM [rising, single point].

With `CCOC(=O)c1c(C)c(C(=O)NCC2CCCO2)c(C)n1C` (stereo unspecified), under setting [2], the AC50 was 5.17 µM [falling, single point].

Take `COc1cc2c(cc1OC)C(C)N(C(=O)c1cc3n(n1)C(C(F)(F)F)CC(c1ccco1)N3)CC2` (stereo unspecified): the cell number change was -19.3%. In addition, the half-maximal activity concentration (AC50) under setting [2] was 18.4 µM [falling, single point].

As to `Cc1csc(=O)n1CC(=O)OC(C)C(=O)Nc1cccc(Cl)c1` (stereo unspecified), the cell number change is -11%.

Regarding `COc1cc2c(cc1OC)C(c1ccccc1)CC2=O` (stereo unspecified), the AC50 under setting [2] was 6.51 µM [rising, single point].

Take `Cc1ccccc1NC(=O)COC(=O)C1C2CC3OC(=O)C1C3C2` (stereo unspecified): the AC50 under setting [1] was 1.84 µM [rising, partial curve] and the AC50 under setting [2] was 29.1 µM [falling, single point].

For the compound `CCc1ccc(NC(=O)c2sc3nc4n(c(=O)c3c2C)CCC4)cc1`, under setting [2], the AC50 is 1.84 µM [falling, full curve].

`O=C(CSc1ccc(-c2ccco2)nn1)NC1CCCCC1`: the cell number change is 32.8%. The AC50 under setting [2] is 4.11 µM [rising, full curve].

For the compound `CN1C(=O)CC(c2ccccc2)C1=O` (stereo unspecified), the cell number change is -2.7%. The AC50 under setting [2] was 1.03 µM [rising, full curve, poor fit].

`CC1CCN(CCCNC(=O)C2CCC(CNS(=O)(=O)c3ccccc3)CC2)CC1` (stereo unspecified): the cell number change was -4.56%. The AC50 under setting [2] is 29.1 µM [rising, single point].
